Primary screen of a compound library

Each number is a percent effect as filed.
The record does not define 0% and 100%; most values in the screen are far below 50% and negative numbers occur (in some assays of this library far below -100).
This is an unselected part of the compounds tested.
Two or more numbers in one place are separate tests of the same structure; such repeats can differ widely.
A dash means the value is not listed here; it may have been measured.

A: 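Whole-parasite assay of Trypanosoma brucei over 72 hours; the read-out is not stated. Tested at 30 µM. Higher reads as stronger inhibition (inferred: compounds with an IC50 in retests scored well above the rest). Values scatter widely below zero; nearly all retest evidence comes from the higher of the two concentrations used. About 64,000 compounds were tested under these conditions; 1.5% (about 940) showed 50% or more at least once.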
B: 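Cell assay of Leishmania donovani living inside macrophages; the read-out is not stated. Tested at 30 µM. Direction is inferred from retests: higher values go with stronger inhibition. About 69,000 compounds were tested under these conditions; 1.5% (about 1,000) showed 50% or more at least once.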
C: 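Assay of Toxoplasma gondii numbers, read through their beta-galactosidase reporter with a colour substrate. Tested at 10 µM. The record gives no direction; the compounds picked for IC50 retests had high values, so higher reads as fewer parasites. Of about 67,000 compounds tested this way, about 260 (0.38%) reached 50% or more in at least one test.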

compound | A | B | C
c1cnc(N2CCCC3(CCN(Cc4cccs4)C3)C2)nc1 (stereo not given) | -58.76% | 1.756% | -38.83%
Cc1nn(C)c2cnn(CC(=O)NCc3ccc(F)cc3)c12 | -8.994% | -50.23% | 21.62%
CNS(=O)(=O)c1cccc(CNc2ncccn2)c1 | -16.55% | 9.082% | 16.9%
O=C(O)C(F)(F)F.[H][C@@]12CCN(Cc3ccccc3OC)C[C@]1(COC)CCO2 | 3.658% | 14.22% | 29.81%
CSCC(C)(O)CNC(=O)Nc1cc(C)cc(C)c1 (stereo not given) | 8.929% | 3.449% & 5.29% | 4.376%
COCC(c1ccccn1)N(C)C(=O)c1cc(-c2ccccc2O)n[nH]1 (stereo not given) | -35.32% | 24.17% | -0.5564%
O=C(O)C(F)(F)F.O=C(O)C(F)(F)F.[H][C@]12CCN(C(=O)CC3CC3)CC[C@@]1([H])S(=O)(=O)CCN2Cc1cccnc1 | -63.96% | -7.98% | 24.81%
Cc1nn(C)c(N2CCOCC2)c1CNCC1CCN(C2CC2)C1 (stereo not given) | -95.3% | -22.85% | 1.839%
Cc1nc2c(c(NC(C)c3nnn[nH]3)n1)Cc1ccccc1OC2 (stereo not given) | -50.26% | -37.46% | -9.07%
O=C(Cn1ncc2ccccc21)Nc1ccnn1CC1CCOC1 (stereo not given) | -24.56% | -3.27% | 3.197%
O=C(Nc1ccc(-n2ccc(C(=O)O)n2)cc1)c1ccccc1 | -17.8% | -2.244% | -13.71%
COCc1noc(CN2CCC3(CC2)[C@H](O)C[C@@H]3OC)n1 | -1.165% | -2.052% | -16.63%
Cc1c(NC(=O)NCC(C)N2CCOCC2)cccc1OC(F)F (stereo not given) | 30.62% | 33.48% | -7.942%
CN(C)c1ccc(C(=O)N2CCCC2c2ccc(Cl)cc2)nn1 (stereo not given) | -70.47% | 4.117% | 7.369%
Cc1cc(C)c(CNC(=O)NCCNc2ccccn2)c(=O)[nH]1 | 4.317% | -4.13% | 4.646%
Cc1cnn(CC(=O)N2CCC3(CCC(=O)N(CC(C)O)C3)CC2)c1 (stereo not given) | 4.519% | 4.809% | -3.055%
[H][C@]12CC[C@]([H])(CN(C(=O)N(C)C)C1)N(C(=O)CCn1ccnc1CC)C2 | -17.61% | 18.14% | 14.59%
C[C@@H]1CN(C(=O)CCCN2CCCC2)CC[C@@]1(O)C1CCOCC1 | 0.246% | 13.42% | 8.322%
CCCN(CCOC)c1nc(C)nc2sccc12 | -266.3% | 19.01% | -5.828%
CCOC(=O)[C@@H]1[C@@H](OC)C(=O)N(C)C12CCN(C(=O)C(CC)CC)CC2 | 47.28% | 18.53% | -7.776%
CC(C)CN1C(=O)C2(CCN(Cc3nccs3)C2)c2ccccc21.O=C(O)C(F)(F)F (stereo not given) | -22.65% | 43.91% | -3.741%
COC(=O)Cn1c(=O)nc2n1C(=O)N(c1cccc(Cl)c1)C2 | -8.775% | 30.8% | -16.5%
Cc1noc(C)c1CC(=O)OCC(=O)N1CCc2sccc2C1 | -1.475% | -18.01% | 10.01%
CN(Cc1ccccc1)CC(O)Cn1cnc2ccccc2c1=O (stereo not given) | -17.41% | 31.34% | -8.647%
CCN1CCN(S(=O)(=O)c2cn(C(C)C)cn2)c2ccccc21 | -84.7% | 15.92% | -5%
Cl.O=S(=O)(c1ccc(Cl)cc1)N1CCc2nc(C3CCNCC3)ncc2C1 | -3.484% | -22.35% | -16.34%
COc1ccc(-c2cn(CCSc3ncn[nH]3)nn2)cn1 | 6.77% | 35.9% | -0.8646%
CNC(=O)c1ccc(C(=O)N2CCC(Nc3cccnn3)CC2)cn1 | - | 15.07% | 8.688%
CC1(C)CCN(Cc2ccccc2-c2nc(C(C)(C)C)cc(=O)[nH]2)C1 | - | -151.9% | -15.31%
Cc1cccc(N2CCC3(CCN(Cc4ccccn4)CC3)CC2)n1.O=C(O)C(F)(F)F.O=C(O)C(F)(F)F | -5.812% | 25.07% | 8.987%
COc1ccc(-c2noc(CCC(=O)N3CCOCC3(C)C)n2)cc1 | -36.85% | 6.07% | -3.376%
Cc1cc(N2CC(c3n[nH]c4nccnc34)C2)ncn1 | -13.64% | -3.975% & 12.03% | -9.758%
Cn1cc(C[C@H]2[C@@H](O)CCN2C(=O)C2CCC2)cn1 | -65.27% | 21.85% & -4.517% | -3.16%
CC(C)NC(=O)CNC(=O)N1CCc2c([nH]c3ccc(Cl)cc23)C1 | 1.893% | 15.91% | -8.444%
O=C(NC1CCC1)C1=NOC2(CCN(Cc3ccco3)C2)C1 (stereo not given) | -17.71% | 6.607% | 7.551%
CNc1snc(C)c1C(=O)N1CCCC(n2nc(C)cc2C)C1 (stereo not given) | -23.82% | 4.44% | -3.011%
CN(C)C1CCCN(C(=O)NCc2ccccc2-n2cccn2)C1 (stereo not given) | -8.45% | 20.9% | -10.6%
Cc1cc(C)n(CC(C)CNC(=O)N(C)Cc2ccco2)n1 (stereo not given) | 13.33% | 27.97% | 2.31%
CN(C)CCCNCCC(Cc1ccccc1)C1CCOC(C)(C)C1.O=C(O)C(=O)O (stereo not given) | - | 91.79% | 77.21%
O=C(NCCCN1CCCC1=O)c1ccc(-n2ccc3ccccc32)s1 | 23.58% | 32.92% | 17.83%
Cc1ccc(CN(C(=O)NCCNC(=O)c2cccnc2)C(C)C)o1 | -153.7% | -12.03% | -0.2163%
COCC(=O)N1CCC2(CC1)CC(CC(=O)NC1CC1)c1ccccc12 (stereo not given) | 13.08% | -0.7292% | -3.365%
COCCc1noc(CN(C)C(=O)C2COc3ccccc3C2)n1 (stereo not given) | -0.6656% | 2.755% | -13.3%
Cc1cccc(CN2CCc3[nH]nc(C(=O)N4CCNC(=O)C4)c3C2)n1.O=C(O)C(F)(F)F | -74.3% | 19.2% | -3.29%
O=c1cc(CNS(=O)(=O)C2CC2)nc2n1CCCNC2 | -30.81% | 4.618% | -5.26%
CN(C)CC1(O)CCCN(C(=O)CCc2nc3cccnc3n2C)C1 (stereo not given) | -54.47% | 26.97% | 13.52%
Cc1noc(C)c1CN1CCN(C(=O)CCn2cncn2)CC1 | -25.04% | -21.11% | 6.304%
CCS(=O)(=O)N1CCN(CC(F)(F)F)CC1 | -16.22% | 5.981% | 0%
Cc1nonc1CN(C)CC1(O)CCCN(CCC2CCCCC2)C1=O (stereo not given) | 15.21% | -11.7% | -3.414%
c1csc(C(CNCc2cccc3c2OCO3)N2CCOCC2)c1 (stereo not given) | -23.04% | -3.612% | 2.054%
Cc1ncc2c(n1)CN(CCOc1ccc3c(c1)CCC(=O)N3)CC2 | -22.19% | 42.15% | 9.474%
N#Cc1c(F)cccc1Nc1cnn(CC(N)=O)c1 | -20.72% | 24.77% | 5.992%
CN(C)C(=O)CN1CCc2ncnc(C3CC3)c2CC1 | -35.72% | -4.194% | 4.238%
COCc1nc(C(=O)N2CCCCC2Cn2cccn2)cs1 (stereo not given) | 25.45% | 18.55% | -4.583%
CCCn1cc(C(=O)N2CCCC(c3nccn3CCOC)C2)c(C)n1 (stereo not given) | -31.69% | -20.4% | 1.266%
O=C(CCS(=O)(=O)C1CCCC1)N1CCC(O)(C(F)(F)F)C1 (stereo not given) | -34.3% | -21.08% | -2.265%
CCC(CC)C(=O)NS(=O)(=O)CCc1ccccc1 | -16.37% | 16.52% | 6.659%
CSc1ccc(Cl)c(C(=O)N2CCCC(CNS(C)(=O)=O)C2)c1 (stereo not given) | -5.263% | -7.799% | -2.447%
CN(C(=O)CN1CCc2nn(C)c(=O)cc2C1)c1nccs1 | -79.6% | 15.05% | 13.27%
COc1cc(N2CCCC(c3ncc[nH]3)C2)ncn1 (stereo not given) | 9.537% | 23.79% | -5.706%

Measurements from “University of Dundee, Small-Polar-MMV Screening Library” (2021), ChEMBL document CHEMBL3988442.